{
  "sequences": {"note": "By UniProt entry, the sequences of proteins in these tests, tags left out. Where a name states a change or a piece, a line headed by the entry shows the natural chain unless it says otherwise.", "UniProt Q9Y320, whole entry, looked up": "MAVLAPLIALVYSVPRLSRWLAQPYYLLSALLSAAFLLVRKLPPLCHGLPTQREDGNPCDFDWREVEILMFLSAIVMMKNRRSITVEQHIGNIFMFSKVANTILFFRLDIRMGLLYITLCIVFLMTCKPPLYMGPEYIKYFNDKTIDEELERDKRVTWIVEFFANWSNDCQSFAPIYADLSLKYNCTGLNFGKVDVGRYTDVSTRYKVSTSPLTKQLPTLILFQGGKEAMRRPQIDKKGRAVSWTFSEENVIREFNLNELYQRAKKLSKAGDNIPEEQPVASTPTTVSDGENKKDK", "UniProt Q9Y3A6": "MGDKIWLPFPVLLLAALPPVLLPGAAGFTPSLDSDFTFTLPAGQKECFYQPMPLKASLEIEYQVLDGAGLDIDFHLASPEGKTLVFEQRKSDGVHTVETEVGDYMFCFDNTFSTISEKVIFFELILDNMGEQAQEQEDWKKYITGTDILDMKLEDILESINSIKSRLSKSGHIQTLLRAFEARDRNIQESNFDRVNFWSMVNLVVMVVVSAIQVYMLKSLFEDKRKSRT", "UniProt Q9NX61": "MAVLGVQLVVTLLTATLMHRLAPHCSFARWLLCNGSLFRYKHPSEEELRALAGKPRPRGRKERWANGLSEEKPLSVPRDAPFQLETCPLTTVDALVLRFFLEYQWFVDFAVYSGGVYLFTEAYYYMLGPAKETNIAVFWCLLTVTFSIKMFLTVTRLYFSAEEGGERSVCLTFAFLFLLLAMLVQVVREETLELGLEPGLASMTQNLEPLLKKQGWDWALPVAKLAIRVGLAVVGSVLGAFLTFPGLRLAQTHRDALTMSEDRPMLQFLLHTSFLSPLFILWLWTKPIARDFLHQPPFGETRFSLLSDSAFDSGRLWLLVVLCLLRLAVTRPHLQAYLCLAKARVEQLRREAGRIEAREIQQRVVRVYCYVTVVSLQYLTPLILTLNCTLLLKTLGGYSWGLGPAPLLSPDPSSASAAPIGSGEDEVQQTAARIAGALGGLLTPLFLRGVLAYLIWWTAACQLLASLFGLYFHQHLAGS", "UniProt Q8NBN3": "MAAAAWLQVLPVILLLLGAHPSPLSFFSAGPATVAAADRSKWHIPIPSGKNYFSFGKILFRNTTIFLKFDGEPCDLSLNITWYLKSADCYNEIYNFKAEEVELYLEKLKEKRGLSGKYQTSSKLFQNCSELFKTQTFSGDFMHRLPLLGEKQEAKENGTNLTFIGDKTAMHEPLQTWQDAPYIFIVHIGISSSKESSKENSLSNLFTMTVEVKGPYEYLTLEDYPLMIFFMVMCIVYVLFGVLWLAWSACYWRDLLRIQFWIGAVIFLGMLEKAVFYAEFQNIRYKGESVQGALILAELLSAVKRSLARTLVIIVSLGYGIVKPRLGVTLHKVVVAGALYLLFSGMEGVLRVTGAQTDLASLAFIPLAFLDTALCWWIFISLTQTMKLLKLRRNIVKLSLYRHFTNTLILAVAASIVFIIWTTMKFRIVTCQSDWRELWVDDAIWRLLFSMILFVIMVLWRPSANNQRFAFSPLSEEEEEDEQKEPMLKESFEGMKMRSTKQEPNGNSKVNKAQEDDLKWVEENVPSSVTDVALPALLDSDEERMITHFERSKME", "UniProt Q71RG4": "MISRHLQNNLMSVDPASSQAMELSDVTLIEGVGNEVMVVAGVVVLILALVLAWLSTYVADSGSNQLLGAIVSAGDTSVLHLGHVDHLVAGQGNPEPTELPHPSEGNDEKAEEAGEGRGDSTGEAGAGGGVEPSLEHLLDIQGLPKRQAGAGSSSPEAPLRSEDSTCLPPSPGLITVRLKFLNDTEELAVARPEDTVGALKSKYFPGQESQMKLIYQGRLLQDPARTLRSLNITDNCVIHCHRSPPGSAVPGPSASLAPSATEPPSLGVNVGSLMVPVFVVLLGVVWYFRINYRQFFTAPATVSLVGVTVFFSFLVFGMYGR", "UniProt Q8IUX1": "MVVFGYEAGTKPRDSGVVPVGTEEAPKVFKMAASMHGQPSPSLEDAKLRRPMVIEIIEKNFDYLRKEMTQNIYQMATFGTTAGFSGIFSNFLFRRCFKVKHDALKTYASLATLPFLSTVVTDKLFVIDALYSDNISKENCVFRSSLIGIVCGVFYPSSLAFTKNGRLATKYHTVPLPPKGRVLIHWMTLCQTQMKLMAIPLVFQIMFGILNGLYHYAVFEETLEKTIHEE", "UniProt Q9NQ34": "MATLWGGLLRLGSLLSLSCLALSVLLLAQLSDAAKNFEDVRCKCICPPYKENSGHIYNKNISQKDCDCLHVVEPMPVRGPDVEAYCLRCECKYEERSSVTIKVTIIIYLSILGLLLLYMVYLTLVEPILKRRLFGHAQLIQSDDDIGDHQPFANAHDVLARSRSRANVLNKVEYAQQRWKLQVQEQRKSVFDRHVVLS", "UniProt Q9P2C4": "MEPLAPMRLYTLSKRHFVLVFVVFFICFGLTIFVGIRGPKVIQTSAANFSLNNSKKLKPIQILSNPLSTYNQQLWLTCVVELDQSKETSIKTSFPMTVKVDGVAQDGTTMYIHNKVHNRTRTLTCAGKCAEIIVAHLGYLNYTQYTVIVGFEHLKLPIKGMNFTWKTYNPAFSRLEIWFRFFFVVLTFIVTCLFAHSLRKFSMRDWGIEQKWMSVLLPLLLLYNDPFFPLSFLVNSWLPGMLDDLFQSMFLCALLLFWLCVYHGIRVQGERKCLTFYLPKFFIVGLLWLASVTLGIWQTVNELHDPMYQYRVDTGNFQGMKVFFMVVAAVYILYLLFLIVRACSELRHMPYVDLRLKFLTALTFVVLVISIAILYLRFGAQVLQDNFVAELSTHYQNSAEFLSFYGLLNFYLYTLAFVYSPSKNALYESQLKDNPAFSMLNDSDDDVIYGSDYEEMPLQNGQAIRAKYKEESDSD", "UniProt P42166": "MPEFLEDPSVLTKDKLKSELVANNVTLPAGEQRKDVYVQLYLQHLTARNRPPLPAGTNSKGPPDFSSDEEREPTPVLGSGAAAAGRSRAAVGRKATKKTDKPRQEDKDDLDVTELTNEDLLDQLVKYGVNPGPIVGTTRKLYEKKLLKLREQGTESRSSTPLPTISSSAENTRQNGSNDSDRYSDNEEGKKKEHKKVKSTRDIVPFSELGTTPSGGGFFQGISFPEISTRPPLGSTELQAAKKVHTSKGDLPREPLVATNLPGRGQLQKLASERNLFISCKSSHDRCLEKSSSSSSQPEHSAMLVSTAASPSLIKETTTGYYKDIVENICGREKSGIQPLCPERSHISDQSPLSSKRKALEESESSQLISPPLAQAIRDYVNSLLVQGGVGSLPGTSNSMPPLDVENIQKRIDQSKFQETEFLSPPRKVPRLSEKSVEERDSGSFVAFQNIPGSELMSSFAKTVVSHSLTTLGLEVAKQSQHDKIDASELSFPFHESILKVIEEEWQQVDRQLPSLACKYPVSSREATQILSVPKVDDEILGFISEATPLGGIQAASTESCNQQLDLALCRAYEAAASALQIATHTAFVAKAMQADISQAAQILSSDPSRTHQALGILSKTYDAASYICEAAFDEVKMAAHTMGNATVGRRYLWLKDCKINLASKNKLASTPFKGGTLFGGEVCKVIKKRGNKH", "UniProt Q9H1E5": "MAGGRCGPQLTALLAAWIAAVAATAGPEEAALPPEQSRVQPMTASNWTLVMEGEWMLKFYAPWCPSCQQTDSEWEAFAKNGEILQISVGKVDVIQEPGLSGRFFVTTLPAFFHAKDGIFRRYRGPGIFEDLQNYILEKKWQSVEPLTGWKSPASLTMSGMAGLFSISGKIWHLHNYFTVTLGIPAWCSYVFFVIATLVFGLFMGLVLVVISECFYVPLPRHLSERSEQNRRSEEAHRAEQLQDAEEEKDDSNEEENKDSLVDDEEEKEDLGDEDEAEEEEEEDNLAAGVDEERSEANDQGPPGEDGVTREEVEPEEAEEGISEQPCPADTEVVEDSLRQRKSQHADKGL", "UniProt Q6PL24": "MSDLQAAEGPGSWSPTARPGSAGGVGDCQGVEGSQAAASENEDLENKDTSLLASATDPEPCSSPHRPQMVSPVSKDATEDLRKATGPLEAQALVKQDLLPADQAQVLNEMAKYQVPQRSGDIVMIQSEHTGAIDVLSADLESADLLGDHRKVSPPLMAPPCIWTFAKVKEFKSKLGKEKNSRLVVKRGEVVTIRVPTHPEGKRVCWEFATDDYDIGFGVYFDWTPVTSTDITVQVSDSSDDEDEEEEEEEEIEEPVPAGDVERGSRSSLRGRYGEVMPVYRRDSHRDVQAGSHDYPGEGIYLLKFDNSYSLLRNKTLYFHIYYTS", "UniProt Q96B77": "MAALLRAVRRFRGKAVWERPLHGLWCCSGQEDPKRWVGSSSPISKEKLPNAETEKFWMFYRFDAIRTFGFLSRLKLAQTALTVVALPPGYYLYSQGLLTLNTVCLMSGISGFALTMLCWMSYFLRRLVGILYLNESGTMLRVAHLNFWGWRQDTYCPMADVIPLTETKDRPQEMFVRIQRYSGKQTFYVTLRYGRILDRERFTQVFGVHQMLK", "UniProt O00220, whole entry, looked up": "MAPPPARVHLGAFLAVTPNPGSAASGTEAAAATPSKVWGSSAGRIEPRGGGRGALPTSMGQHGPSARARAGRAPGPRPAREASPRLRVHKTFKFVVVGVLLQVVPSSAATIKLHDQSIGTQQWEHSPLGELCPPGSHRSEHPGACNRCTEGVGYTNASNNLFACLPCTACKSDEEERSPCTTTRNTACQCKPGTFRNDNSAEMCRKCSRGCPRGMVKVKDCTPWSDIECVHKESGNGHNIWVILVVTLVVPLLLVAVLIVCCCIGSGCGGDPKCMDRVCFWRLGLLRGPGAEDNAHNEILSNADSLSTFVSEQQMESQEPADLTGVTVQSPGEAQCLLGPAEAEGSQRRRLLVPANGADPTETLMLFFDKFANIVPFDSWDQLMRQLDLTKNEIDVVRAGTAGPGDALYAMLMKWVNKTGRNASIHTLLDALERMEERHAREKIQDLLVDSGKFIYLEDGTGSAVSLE", "UniProt Q8IY95": "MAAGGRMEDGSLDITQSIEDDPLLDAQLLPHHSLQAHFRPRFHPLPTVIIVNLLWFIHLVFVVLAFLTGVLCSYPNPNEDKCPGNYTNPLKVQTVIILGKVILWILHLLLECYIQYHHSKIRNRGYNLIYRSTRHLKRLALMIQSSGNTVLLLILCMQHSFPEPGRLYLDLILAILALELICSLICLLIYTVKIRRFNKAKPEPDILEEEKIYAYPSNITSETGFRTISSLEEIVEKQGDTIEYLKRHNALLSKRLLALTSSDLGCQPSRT", "UniProt Q9HC07": "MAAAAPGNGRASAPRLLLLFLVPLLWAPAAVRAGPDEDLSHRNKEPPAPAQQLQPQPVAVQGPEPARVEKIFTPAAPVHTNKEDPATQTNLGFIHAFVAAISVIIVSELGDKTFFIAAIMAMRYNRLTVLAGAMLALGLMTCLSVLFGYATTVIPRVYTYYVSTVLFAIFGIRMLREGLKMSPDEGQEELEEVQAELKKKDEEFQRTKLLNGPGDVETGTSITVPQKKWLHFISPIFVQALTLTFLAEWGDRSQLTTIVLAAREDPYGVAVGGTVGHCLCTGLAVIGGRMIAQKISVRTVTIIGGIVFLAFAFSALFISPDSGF", "UniProt Q7Z7H5": "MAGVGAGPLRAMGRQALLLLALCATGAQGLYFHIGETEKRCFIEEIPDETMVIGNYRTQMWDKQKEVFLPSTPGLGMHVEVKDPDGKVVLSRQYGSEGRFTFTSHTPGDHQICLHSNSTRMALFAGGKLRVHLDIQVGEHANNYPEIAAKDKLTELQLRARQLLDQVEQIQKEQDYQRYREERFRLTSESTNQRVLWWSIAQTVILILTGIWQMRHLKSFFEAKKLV", "UniProt Q86WV6": "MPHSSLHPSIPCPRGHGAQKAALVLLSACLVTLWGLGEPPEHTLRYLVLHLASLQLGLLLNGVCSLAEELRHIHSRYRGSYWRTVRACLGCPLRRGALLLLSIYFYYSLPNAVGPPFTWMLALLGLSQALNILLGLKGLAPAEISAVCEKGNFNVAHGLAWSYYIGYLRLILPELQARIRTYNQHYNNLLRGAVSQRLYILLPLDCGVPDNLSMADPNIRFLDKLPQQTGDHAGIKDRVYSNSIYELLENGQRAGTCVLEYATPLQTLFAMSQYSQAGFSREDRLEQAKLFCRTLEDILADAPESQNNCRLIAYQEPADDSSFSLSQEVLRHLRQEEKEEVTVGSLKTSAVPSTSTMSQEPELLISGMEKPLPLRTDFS", "UniProt Q8N511": "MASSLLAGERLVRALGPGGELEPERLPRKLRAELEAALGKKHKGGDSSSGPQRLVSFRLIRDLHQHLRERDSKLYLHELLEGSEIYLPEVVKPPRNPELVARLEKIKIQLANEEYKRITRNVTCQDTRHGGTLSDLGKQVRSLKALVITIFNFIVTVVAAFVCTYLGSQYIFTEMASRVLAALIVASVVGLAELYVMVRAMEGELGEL", "UniProt Q13829": "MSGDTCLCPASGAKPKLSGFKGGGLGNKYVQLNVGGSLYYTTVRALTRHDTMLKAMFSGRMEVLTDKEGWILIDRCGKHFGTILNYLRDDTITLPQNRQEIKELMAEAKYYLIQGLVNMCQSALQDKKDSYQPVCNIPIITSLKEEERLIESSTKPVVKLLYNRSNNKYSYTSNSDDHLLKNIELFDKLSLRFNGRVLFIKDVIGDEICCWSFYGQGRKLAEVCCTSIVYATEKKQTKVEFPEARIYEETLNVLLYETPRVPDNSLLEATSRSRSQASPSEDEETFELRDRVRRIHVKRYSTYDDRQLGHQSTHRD"},
  "source": "the supplement of paper PMC10849652",
  "note": "The other results are listed elsewhere or left out.",
  "data": [
    {"compound": "CC1=C(SC2=C1C(=N[C@H](C3=NN=C(N32)C)CC(=O)N)C4=CC=C(C=C4)Cl)C", "assay": "log2 fold change, soluble protein after heating vs DMSO (PISA); higher = thermal stabilisation; K562 cells, 10 uM, 30 min; active = over 0.2 and 3.5 SD of the protein, either way, in both replicates (recomputed)", "procedure,_shortened": "(§1)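 Quantification of soluble protein used TMTpro 16plex LC-MS/MS, with channel sums equalised. Samples were the supernatant after 21,000xg for 90 min of pooled aliquots from K562 cells (2×10^6 cells/mL) treated with 10 μM compound for 30 min, heated for 3 min over 48°C-58°C, and extracted in PBS with 0.5% NP-40 at 4°C. Values, from duplicates, describe thermal stability against control samples on a log2 fold-change scale.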", "values": [
      {"target": "TMA16 (UniProt Q96EY4)", "log2 fold change": "inactive: -0.302"},
      {"target": "TMEM185B (UniProt Q9H7F4)", "log2 fold change": "inactive: -0.004"},
      {"target": "TMX2 (UniProt Q9Y320)", "log2 fold change": "inactive: 0.057"},
      {"target": "TMED5 (UniProt Q9Y3A6)", "log2 fold change": "inactive: 0.036"},
      {"target": "TMEM161A (UniProt Q9NX61)", "log2 fold change": "inactive: 0.017"},
      {"target": "TMEM87A (UniProt Q8NBN3)", "log2 fold change": "inactive: 0.034"},
      {"target": "TMEM135 (UniProt Q86UB9)", "log2 fold change": "inactive: 0.02"},
      {"target": "TMEM167A (UniProt Q8TBQ9)", "log2 fold change": "inactive: -0.023"},
      {"target": "TMUB2 (UniProt Q71RG4)", "log2 fold change": "inactive: -0.016"},
      {"target": "TMEM68 (UniProt Q96MH6)", "log2 fold change": "inactive: 0.055"},
      {"target": "TMEM160 (UniProt Q9NX00)", "log2 fold change": "inactive: 0.01"},
      {"target": "TMEM70 (UniProt Q9BUB7)", "log2 fold change": "inactive: 0.065"},
      {"target": "TMEM126B (UniProt Q8IUX1)", "log2 fold change": "inactive: 0.015"},
      {"target": "TMEM9B (UniProt Q9NQ34)", "log2 fold change": "inactive: 0.074"},
      {"target": "TMEM181 (UniProt Q9P2C4)", "log2 fold change": "inactive: -0.076"},
      {"target": "TM9SF3 (UniProt Q9HD45)", "log2 fold change": "inactive: 0.05"},
      {"target": "TMPO (UniProt P42166)", "log2 fold change": "inactive: -0.024"},
      {"target": "TMPO isoform 2 (UniProt P42167)", "log2 fold change": "inactive: -0.104"},
      {"target": "TMUB1 (UniProt Q9BVT8)", "log2 fold change": "inactive: -0.193"},
      {"target": "TMEM30A (UniProt Q9NV96)", "log2 fold change": "inactive: 0.041"},
      {"target": "TMBIM1 (UniProt Q969X1)", "log2 fold change": "inactive: 0.206"},
      {"target": "TLK1 (UniProt Q9UKI8)", "log2 fold change": "inactive: 0.036"},
      {"target": "TMX4 (UniProt Q9H1E5)", "log2 fold change": "inactive: -0.034"},
      {"target": "TMED8 (UniProt Q6PL24)", "log2 fold change": "inactive: -0.02"},
      {"target": "TM9SF4 (UniProt Q92544)", "log2 fold change": "inactive: 0.008"},
      {"target": "TMEM186 (UniProt Q96B77)", "log2 fold change": "inactive: -0.02"},
      {"target": "TM9SF2 (UniProt Q99805)", "log2 fold change": "inactive: 0.035"},
      {"target": "TMEM126A (UniProt Q9H061)", "log2 fold change": "inactive: 0.032"},
      {"target": "TNFRSF10A (UniProt O00220)", "log2 fold change": "inactive: 0.006"},
      {"target": "TMEM192 (UniProt Q8IY95)", "log2 fold change": "inactive: -0.03"},
      {"target": "TMEM165 (UniProt Q9HC07)", "log2 fold change": "inactive: -0.016"},
      {"target": "TMF1 (UniProt P82094)", "log2 fold change": "inactive: 0.028"},
      {"target": "TMED4 (UniProt Q7Z7H5)", "log2 fold change": "inactive: 0.022"},
      {"target": "TMEM173 (UniProt Q86WV6)", "log2 fold change": "inactive: 0.045"},
      {"target": "TLE4 isoform 3 (UniProt Q04727)", "log2 fold change": "inactive: 0.047"},
      {"target": "TMEM199 (UniProt Q8N511)", "log2 fold change": "inactive: 0.013"},
      {"target": "TNFAIP1 (UniProt Q13829)", "log2 fold change": "inactive: -0.027"}
    ]},
    {"compound": "CC1=C2C(=CC=C1)N=C(N(C2=O)C3=CC=CC=C3C)CN4C=NC5=C(N=CN=C54)N", "assay": "log2 fold change, soluble protein after heating vs DMSO (PISA); higher = thermal stabilisation; K562 cells, 10 uM, 30 min; active = over 0.2 and 3.5 SD of the protein, either way, in both replicates (recomputed)", "procedure,_shortened": "as §1", "values": [
      {"target": "TMA16 (UniProt Q96EY4)", "log2 fold change": "inactive: -0.22"},
      {"target": "TMEM185B (UniProt Q9H7F4)", "log2 fold change": "inactive: 0.035"},
      {"target": "TMX2 (UniProt Q9Y320)", "log2 fold change": "inactive: 0.035"},
      {"target": "TMED5 (UniProt Q9Y3A6)", "log2 fold change": "inactive: 0.031"},
      {"target": "TMEM161A (UniProt Q9NX61)", "log2 fold change": "inactive: 0.098"},
      {"target": "TMEM87A (UniProt Q8NBN3)", "log2 fold change": "inactive: 0.042"},
      {"target": "TMEM135 (UniProt Q86UB9)", "log2 fold change": "inactive: 0.182"},
      {"target": "TMEM167A (UniProt Q8TBQ9)", "log2 fold change": "inactive: -0.018"},
      {"target": "TMUB2 (UniProt Q71RG4)", "log2 fold change": "inactive: 0.027"},
      {"target": "TMEM68 (UniProt Q96MH6)", "log2 fold change": "inactive: 0.123"},
      {"target": "TMEM160 (UniProt Q9NX00)", "log2 fold change": "inactive: 0.074"},
      {"target": "TMEM70 (UniProt Q9BUB7)", "log2 fold change": "inactive: 0.057"},
      {"target": "TMEM126B (UniProt Q8IUX1)", "log2 fold change": "inactive: 0.052"},
      {"target": "TMEM9B (UniProt Q9NQ34)", "log2 fold change": "inactive: 0.093"},
      {"target": "TMEM181 (UniProt Q9P2C4)", "log2 fold change": "inactive: 0.085"},
      {"target": "TM9SF3 (UniProt Q9HD45)", "log2 fold change": "inactive: 0.02"},
      {"target": "TMPO (UniProt P42166)", "log2 fold change": "inactive: 0.076"},
      {"target": "TMPO isoform 2 (UniProt P42167)", "log2 fold change": "inactive: 0.116"},
      {"target": "TMUB1 (UniProt Q9BVT8)", "log2 fold change": "inactive: -0.22"},
      {"target": "TMEM30A (UniProt Q9NV96)", "log2 fold change": "inactive: -0.021"},
      {"target": "TMBIM1 (UniProt Q969X1)", "log2 fold change": "inactive: 0.242"},
      {"target": "TLK1 (UniProt Q9UKI8)", "log2 fold change": "inactive: 0.036"},
      {"target": "TMX4 (UniProt Q9H1E5)", "log2 fold change": "inactive: -0.005"},
      {"target": "TMED8 (UniProt Q6PL24)", "log2 fold change": "inactive: 0.081"},
      {"target": "TM9SF4 (UniProt Q92544)", "log2 fold change": "inactive: -0.001"},
      {"target": "TMEM186 (UniProt Q96B77)", "log2 fold change": "inactive: 0.105"},
      {"target": "TM9SF2 (UniProt Q99805)", "log2 fold change": "inactive: 0.054"},
      {"target": "TMEM126A (UniProt Q9H061)", "log2 fold change": "inactive: 0.06"},
      {"target": "TNFRSF10A (UniProt O00220)", "log2 fold change": "inactive: -0.058"},
      {"target": "TMEM192 (UniProt Q8IY95)", "log2 fold change": "inactive: 0.018"},
      {"target": "TMEM165 (UniProt Q9HC07)", "log2 fold change": "inactive: 0.165"},
      {"target": "TMF1 (UniProt P82094)", "log2 fold change": "inactive: -0.001"},
      {"target": "TMED4 (UniProt Q7Z7H5)", "log2 fold change": "inactive: 0.038"},
      {"target": "TMEM173 (UniProt Q86WV6)", "log2 fold change": "inactive: 0.086"},
      {"target": "TLE4 isoform 3 (UniProt Q04727)", "log2 fold change": "inactive: 0.052"},
      {"target": "TMEM199 (UniProt Q8N511)", "log2 fold change": "inactive: 0.144"},
      {"target": "TNFAIP1 (UniProt Q13829)", "log2 fold change": "inactive: -0.141"}
    ]}
  ]
}
